From article PMC10016708 come the findings set out here.

The chains behind the UniProt entries cited, without tags or fusion partners. Residues count along the entry.
UniProt P25445, residues 26-335: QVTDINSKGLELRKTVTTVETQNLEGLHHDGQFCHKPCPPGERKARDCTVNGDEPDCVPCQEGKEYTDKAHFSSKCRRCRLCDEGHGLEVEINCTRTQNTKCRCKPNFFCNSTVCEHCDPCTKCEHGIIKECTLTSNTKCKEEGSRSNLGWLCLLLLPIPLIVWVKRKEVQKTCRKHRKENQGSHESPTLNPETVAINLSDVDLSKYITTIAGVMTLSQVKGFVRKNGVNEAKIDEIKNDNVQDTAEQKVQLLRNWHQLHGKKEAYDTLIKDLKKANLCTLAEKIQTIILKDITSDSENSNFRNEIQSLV
UniProt O00220, residues 24-468: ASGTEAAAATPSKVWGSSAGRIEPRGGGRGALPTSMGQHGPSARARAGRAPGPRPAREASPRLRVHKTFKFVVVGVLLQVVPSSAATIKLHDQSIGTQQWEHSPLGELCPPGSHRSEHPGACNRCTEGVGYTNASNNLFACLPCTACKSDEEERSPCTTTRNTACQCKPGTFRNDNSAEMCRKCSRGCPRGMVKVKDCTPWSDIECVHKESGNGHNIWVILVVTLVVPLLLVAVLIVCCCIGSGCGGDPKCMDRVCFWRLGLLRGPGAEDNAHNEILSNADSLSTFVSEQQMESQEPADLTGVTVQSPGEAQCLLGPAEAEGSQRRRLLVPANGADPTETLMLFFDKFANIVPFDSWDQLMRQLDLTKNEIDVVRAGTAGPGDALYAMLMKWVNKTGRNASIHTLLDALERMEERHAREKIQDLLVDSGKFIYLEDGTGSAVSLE

No constants are given. Whether binding was seen depends on the method and setting. In cells and extracts the contact can be indirect. Some results given as binding are weak or reduced against the parent protein; the word gives no strength.

The target of experiment [1] is T1, membrane-associated RING-CH-type finger ubiquitin ligase MARCHF8 (human (endogenous in SCC152)) (UniProt Q5T0T0).
T1 sequence: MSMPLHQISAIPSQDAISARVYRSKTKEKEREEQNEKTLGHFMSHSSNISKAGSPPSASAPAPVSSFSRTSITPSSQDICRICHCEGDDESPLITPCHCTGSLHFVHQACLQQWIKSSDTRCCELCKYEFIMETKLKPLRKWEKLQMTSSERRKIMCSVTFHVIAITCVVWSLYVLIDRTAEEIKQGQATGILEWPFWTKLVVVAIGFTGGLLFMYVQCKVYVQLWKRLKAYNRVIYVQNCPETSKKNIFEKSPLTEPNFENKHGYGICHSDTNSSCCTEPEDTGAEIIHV
The experiment in a line: co-IP; endogenous proteins; 1 mg whole-cell lysate (RIPA buffer) of SCC152 cells treated with MG132, incubated overnight at 4°C with protein A/G magnetic beads carrying 5 μg anti-MARCHF8 or anti-FAS antibody; western blot. For orientation: A western blot detects proteins with antibodies after separation by electrophoresis.

Experiment [2] deals with FAS (human (endogenous in SCC152)) (UniProt P25445). The description is as above.

As to “FAS (from UniProt P25445 26-335) (receptor)”, the binding entry in experiment [1] was “binds”.

For “TRAIL-R1 (from UniProt O00220 24-468) (receptor)”, the binding entry in experiment [1] was “binds”.

B1: membrane-associated RING-CH-type finger ubiquitin ligase MARCHF8 (enzyme, UniProt Q5T0T0 1-291)
chain: T1 sequence
In the case of B1, the binding entry in experiment [2] is listed as “binds”.
